Drawing on PMC6019204, this text covers binding for 1 substance.

Chains of the proteins cited; added tags and fusions are not shown. Lines headed by an entry give the natural chain unless they say otherwise; changes in a name come on top. A line that says so, or that is headed by a name, gives the form on record, which may keep a tag or linker.
ER-α36 (Estrogen receptor-alpha36) (P03372-4, form named): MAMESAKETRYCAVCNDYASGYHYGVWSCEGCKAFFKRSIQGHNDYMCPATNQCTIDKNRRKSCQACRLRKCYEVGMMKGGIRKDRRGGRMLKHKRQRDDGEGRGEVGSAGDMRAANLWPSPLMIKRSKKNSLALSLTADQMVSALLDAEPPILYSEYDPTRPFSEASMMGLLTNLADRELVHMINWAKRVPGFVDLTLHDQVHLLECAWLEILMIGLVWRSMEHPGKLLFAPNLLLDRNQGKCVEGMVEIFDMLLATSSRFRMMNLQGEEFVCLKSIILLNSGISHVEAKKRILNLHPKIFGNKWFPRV

Experiment [1] concerns the target Epidermal growth factor receptor (human (endogenous in MCF-7)) (UniProt P00533). The experiment is described as follows: co-IP; MCF-7 cells treated with or without 5 μg/mL cisplatin for 48 h; lysates incubated with anti-HER-2 or anti-EGFR antibodies or IgG for 1 h at 4 °C, Protein A/G plus-agarose overnight at 4 °C, washed with PBS; precipitates probed with anti-ER-α36 antibody.

For experiment [2], the target named is Human epidermal growth factor receptor-2 (human (endogenous in MCF-7)) (UniProt P04626). Described as above.

No constants are given. Whether binding was seen depends on the method and setting. In cells and extracts the contact can be indirect. Some results given as binding are weak or reduced against the parent protein; the word gives no strength.

In the case of “ER-α36 (Estrogen receptor-alpha36) (from UniProt P03372-4 1-310)”, the binding result in experiment [1] and in experiment [2] was “binds” throughout.
